Results are given in words; binding and its absence hold for the method and conditions named. Binding seen in cells or lysates may run through a third protein. Some binding calls cover weakened binding; strength is not graded here. Each block holds one substance with its values, some of them ahead of it.
Experiments:
[1] = target: CYP2E1, tagged, expressed in AML12 cells (exogenous IP) (mouse) (UniProt Q05421); assay: co-IP; exogenous IP in AML12 cells (Fig. S5A-B)
[2] = target: HSP90AA1, endogenous in AML12 cells (mouse (endogenous in AML12)) (UniProt P07901); assay: co-IP; endogenous co-IP in AML12 cells treated with PO for 12 h; anti-USP14 or anti-HSP90AA1 rabbit antibody with protein G agarose; IgG as control
[3] = target: Heat shock protein 90 alpha family class A member 1 (HSP90AA1), tagged, expressed in HEK-293T cells (mouse) (UniProt P07901); assay: co-IP; exogenous co-IP; HEK-293T cells cotransfected with tagged plasmids; lysis buffer 150 mM NaCl, 10 mM HEPES pH 7.4, 1% NP-40; lysates incubated overnight at 4 °C with Flag or Myc affinity agarose; washed six times, eluted with glycine, immunoblot

Protein sequences, listed by entry. Tags and fused reporters are not part of them.
UniProt Q05421: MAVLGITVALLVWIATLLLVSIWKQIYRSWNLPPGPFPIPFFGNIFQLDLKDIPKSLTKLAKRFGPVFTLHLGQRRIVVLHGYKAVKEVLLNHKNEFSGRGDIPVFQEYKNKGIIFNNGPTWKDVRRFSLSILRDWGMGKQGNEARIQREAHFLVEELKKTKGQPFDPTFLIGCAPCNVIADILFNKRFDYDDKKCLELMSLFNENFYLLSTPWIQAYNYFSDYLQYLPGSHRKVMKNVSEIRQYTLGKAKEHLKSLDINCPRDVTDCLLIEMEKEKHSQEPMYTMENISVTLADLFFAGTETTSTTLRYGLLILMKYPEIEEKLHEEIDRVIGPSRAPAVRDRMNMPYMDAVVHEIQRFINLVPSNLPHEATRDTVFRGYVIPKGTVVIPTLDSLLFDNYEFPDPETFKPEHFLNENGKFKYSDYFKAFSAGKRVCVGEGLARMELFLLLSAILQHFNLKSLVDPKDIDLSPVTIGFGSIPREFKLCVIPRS
UniProt Q9JMA1: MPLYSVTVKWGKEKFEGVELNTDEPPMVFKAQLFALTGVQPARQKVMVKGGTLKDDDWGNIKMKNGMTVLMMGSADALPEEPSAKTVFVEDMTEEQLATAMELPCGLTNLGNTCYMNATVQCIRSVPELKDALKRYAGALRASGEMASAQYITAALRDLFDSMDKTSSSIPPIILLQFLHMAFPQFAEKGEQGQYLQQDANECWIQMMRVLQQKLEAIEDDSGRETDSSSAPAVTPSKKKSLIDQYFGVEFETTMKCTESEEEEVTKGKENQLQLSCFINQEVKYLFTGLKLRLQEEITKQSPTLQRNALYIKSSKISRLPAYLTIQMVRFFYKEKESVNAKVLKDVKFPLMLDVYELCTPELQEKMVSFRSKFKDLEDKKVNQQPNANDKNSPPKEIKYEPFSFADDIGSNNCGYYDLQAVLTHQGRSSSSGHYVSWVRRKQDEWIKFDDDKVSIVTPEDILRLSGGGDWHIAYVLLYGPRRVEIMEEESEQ

binding [1]: no binding
Substance: USP14, tagged, expressed in AML12 cells (exogenous IP) (from UniProt Q9JMA1 1-493) (enzyme)

binding [2]: binds
Substance: USP14, endogenous in AML12 cells (from UniProt Q9JMA1 1-493) (enzyme)

binding [3]: binds
Substance: Ubiquitin-specific proteinase 14 (USP14), full length, tagged, expressed in HEK-293T cells (from UniProt Q9JMA1 1-493) (enzyme)

Source: publication PMC10460448
